Results: article PMC7028368
Results are given in words; binding and its absence hold for the method and conditions named. Binding seen in cells or lysates may run through a third protein. Some entries that bind do so weakly or less than the wild type.

The chains behind the UniProt entries cited, without tags or fusion partners. Residues count along the entry.
UniProt P33175, residues 677-1027: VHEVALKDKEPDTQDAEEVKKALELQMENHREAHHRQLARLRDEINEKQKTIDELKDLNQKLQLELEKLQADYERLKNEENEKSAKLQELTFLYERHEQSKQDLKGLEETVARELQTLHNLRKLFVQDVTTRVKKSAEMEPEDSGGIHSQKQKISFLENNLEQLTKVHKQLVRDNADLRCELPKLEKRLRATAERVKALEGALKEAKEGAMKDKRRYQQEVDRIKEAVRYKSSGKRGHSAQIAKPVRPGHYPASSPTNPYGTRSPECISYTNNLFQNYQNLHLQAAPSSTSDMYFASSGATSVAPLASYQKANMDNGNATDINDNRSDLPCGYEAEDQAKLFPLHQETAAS
UniProt Q61768, residues 680-963: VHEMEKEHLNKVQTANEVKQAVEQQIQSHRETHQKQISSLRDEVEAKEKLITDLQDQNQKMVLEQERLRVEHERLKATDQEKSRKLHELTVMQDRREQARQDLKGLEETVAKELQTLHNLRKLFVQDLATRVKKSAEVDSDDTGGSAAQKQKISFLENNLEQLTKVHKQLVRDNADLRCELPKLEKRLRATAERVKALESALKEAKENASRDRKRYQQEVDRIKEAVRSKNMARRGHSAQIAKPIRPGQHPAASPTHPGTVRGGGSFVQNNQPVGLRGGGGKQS
UniProt P28738, residues 681-956: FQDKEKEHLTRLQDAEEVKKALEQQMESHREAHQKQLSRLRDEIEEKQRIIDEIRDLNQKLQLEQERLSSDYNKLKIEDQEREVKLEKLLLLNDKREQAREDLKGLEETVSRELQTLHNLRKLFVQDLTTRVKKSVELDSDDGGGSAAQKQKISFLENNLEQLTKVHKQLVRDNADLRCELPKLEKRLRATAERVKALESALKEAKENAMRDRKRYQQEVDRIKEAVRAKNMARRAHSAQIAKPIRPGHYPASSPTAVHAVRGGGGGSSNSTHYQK

Experiments:
Test in all cases: pull-down; equimolar GST-fused carboxyl-terminal KIF5 fragments with glutathione sepharose beads and pre-cleared mouse forebrain lysate (Tris buffer: 20 mM Tris, 150 mM NaCl, 1 mM EDTA, 1 mM EGTA, 5 mM NaF, 0.5% NP40), 4°C for 2 hr; Western blot; only the target purified
[1] = target: GST-fused KIF5A (a.a.677–1027) (mouse) (UniProt P33175)
[2] = target: GST-fused KIF5B (aa 680–963) (mouse) (UniProt Q61768)
[3] = target: GST-fused KIF5C (aa 681–956) (mouse) (UniProt P28738)

Measured: binding

B1: Ras GTPase-activating protein-binding protein G3BP2 (protein, UniProt P97379 1-482)
chain: MVMEKPSPLLVGREFVRQYYTLLNKAPEYLHRFYGRNSSYVHGGVDASGKPQEAVYGQNDIHHKVLSLNFSECHTKIRHVDAHATLSDGVVVQVMGLLSNSGQPERKFMQTFVLAPEGSVPNKFYVHNDMFRYEDEVFGDSEPELDEESEDEVEEEQEDRQPSPEPVQENANSAYYDAHPVTNGIEEPLEESSHEPEPEPESETKTEELKPQVEEKHLEELEEKSATPPPAEPASLPQEPPKAFSWASVTSKNLPPSGTVSSSGIPPHVKAPVSQPRVDAKPEVQSQPPRVREQRPRERPGFPPRGPRPGRGDMEQNDSDNRRIIRYPDSHQLFVGNLPHDIDENELKEFFMSFGNVVELRINTKGVGGKLPNFGFVVFDDSEPVQRILIAKPIMFRGEVRLNVEEKKTRAARERETRGGGDDRRDIRRNDRGPGGPRGIVGGGMMRDRDGRGPPPRGGMTQKLGSGRGTGQMEGRFTGQRR
binds: all assays above
